From US20030027835A1 (priority 1999, published 2003)

Test system: sodium currents in rat dorsal root ganglia (DRG) neurons
Type: cell-based
Details: maleate

CCC(COC(=O)c1cc(OC)c(OC)c(OC)c1)(c1ccccc1)N(C)C.O=C(O)/C=C\C(=O)O (racemic) [Trimebutine, 2-dimethylamino-2-phenylbutyl 3,4,5-trimethoxybenzoate hydrogen maleate]
Hill coefficient nH, block of Na+ current: 1.09±0.10 and 1.02

Where “and” joins values, the source holds several entries; their conditions need not be identical. Equal values may be shown once.
